Results taken from US20240110220A1, “DETECTING BETA-LACTAMASE ENZYME ACTIVITY” (COMMISSARIAT A L'ENERGIE ATOMIQUE ET AUX ENERGIES …, priority 2021, published 2024).
Further values from the same series stand in other lists.

Tested on: bacterial colonies
Experiment: Validation of the rapid test strip on bacterial colonies sensitive or resistant to third-generation cephalosporins (Table 12)
Type: biochemical
Parameters: key: A signal on the TL is considered as “P”; An absence of signal on the TL is defined as “N”
Experimental: In order to validate the test strip on bacterial colonies for its clinical use, […].
In order to carry out these tests, all of the solutions below have been prepared in the buffer strip having, for composition: 0.1 M pH 8 Tris buffer/HCL+0.15 M NaCl+0.5% Tween 20+1% chaps+0.01% sodium azide. […] The tracer is in dried format on the CP. […] A CL was produced. It consists of anti-tracer antibodies. The migration is carried out in a plastic cassette.
A bacterial colony was sampled from an URI-4 agar with a 1 μl ose, then deposited in the previously prepared Eppendorf tube. The tube was vortexed for five seconds, then incubated for 30 minutes at ambient temperature. Once the incubation was finished, 100 μl was sampled and deposited on the test strip. The reading is carried out after 10 minutes migration. A signal on the TL is considered as “P”. An absence of signal on the TL is defined as “N”.

Compound: CO/N=C(\C(=O)N[C@@H]1C(=O)N2C(C(=O)O)=C(COC(C)=O)CS[C@H]12)c1csc(N)n1 [non-hydrolysed cefotaxime, cefotaxime]
- results of the test (A. baumannii, CTX-M-15, isolate number 1, strains capable of hydrolysing cefotaxime): P
- results of the test (A. baumannii, GES-11 + OXA-23, isolate number 1, strains capable of hydrolysing cefotaxime): P
- results of the test (A. baumannii, GES-11 + OXA-64, isolate number 1, strains capable of hydrolysing cefotaxime): P
- results of the test (A. baumannii, GES-11 + OXA-98, isolate number 1, strains capable of hydrolysing cefotaxime): P
- results of the test (A. baumannii, GES-11, isolate number 1, strains capable of hydrolysing cefotaxime): P
- results of the test (A. baumannii, GES-12 + OXA-51, isolate number 3, strains capable of hydrolysing cefotaxime): P
- results of the test (A. baumannii, GES-12, isolate number 1, strains capable of hydrolysing cefotaxime): P
- results of the test (A. baumannii, GES-14 + OXA 23, isolate number 1, strains capable of hydrolysing cefotaxime): P
- results of the test (A. baumannii, GES-14, isolate number 3, strains capable of hydrolysing cefotaxime): P
- results of the test (A. baumannii, IMP-1, isolate number 2, strains capable of hydrolysing cefotaxime): P
- results of the test (A. baumannii, IMP-4, isolate number 1, strains capable of hydrolysing cefotaxime): P
- results of the test (A. baumannii, N/A, isolate number 2, strains not capable of hydrolysing cefotaxime): N
- results of the test (A. baumannii, NDM-1 + OXA 23, isolate number 5, strains capable of hydrolysing cefotaxime): P
- results of the test (A. baumannii, NDM-1 + OXA-51, isolate number 1, strains capable of hydrolysing cefotaxime): P
- results of the test (A. baumannii, NDM-1, isolate number 2, strains capable of hydrolysing cefotaxime): P
- results of the test (A. baumannii, NDM-2, isolate number 1, strains capable of hydrolysing cefotaxime): P
- results of the test (A. baumannii, NDM, isolate number 1, strains capable of hydrolysing cefotaxime): P
- results of the test (A. baumannii, OXA-13, isolate number 1, strains not capable of hydrolysing cefotaxime): N
- results of the test (A. baumannii, OXA-14, isolate number 1, strains capable of hydrolysing cefotaxime): P
- results of the test (A. baumannii, OXA-18 + OXA-20, isolate number 1, strains capable of hydrolysing cefotaxime): P
- results of the test (A. baumannii, OXA-21, isolate number 1, strains not capable of hydrolysing cefotaxime): N
- results of the test (A. baumannii, OXA-23, isolate number 4, strains capable of hydrolysing cefotaxime): P
- results of the test (A. baumannii, OXA-24 + OXA-40, isolate number 1, strains capable of hydrolysing cefotaxime): P
- results of the test (A. baumannii, OXA-51, isolate number 1, strains capable of hydrolysing cefotaxime): P
- results of the test (A. baumannii, OXA-58, isolate number 1, strains capable of hydrolysing cefotaxime): P
- results of the test (A. baumannii, OXA-66, isolate number 1, strains capable of hydrolysing cefotaxime): P
- results of the test (A. baumannii, OXA-72, isolate number 1, strains capable of hydrolysing cefotaxime): P
- results of the test (A. baumannii, OXA-97, isolate number 1, strains capable of hydrolysing cefotaxime): P
- results of the test (A. baumannii, OXA-143, isolate number 1, strains capable of hydrolysing cefotaxime): P
- results of the test (A. baumannii, OXA-253, isolate number 1, strains capable of hydrolysing cefotaxime): P
- results of the test (A. baumannii, Overexpressed AmpC + OXA-23, isolate number 1, strains capable of hydrolysing cefotaxime): P
- results of the test (A. baumannii, PER-1, isolate number 1, strains capable of hydrolysing cefotaxime): P
- results of the test (A. baumannii, RTG-4, isolate number 1, strains not capable of hydrolysing cefotaxime): N
- results of the test (A. baumannii, SCO-1, isolate number 1, strains capable of hydrolysing cefotaxime): P
- results of the test (A. baumannii, SHV-5 + OXA-51, isolate number 1, strains capable of hydrolysing cefotaxime): P
- results of the test (A. baumannii, SHV-5, isolate number 1, strains capable of hydrolysing cefotaxime): P
- results of the test (A. baumannii, SIM-1, isolate number 1, strains capable of hydrolysing cefotaxime): P
- results of the test (A. baumannii, TEM, isolate number 1, strains capable of hydrolysing cefotaxime): P
- results of the test (A. baumannii, VEB-1 + OXA-10 + OXA-69, isolate number 1, strains capable of hydrolysing cefotaxime): P
- results of the test (A. baumannii, VEB-1, isolate number 1, strains capable of hydrolysing cefotaxime): P
- results of the test (A. genomospecies, VIM-4, isolate number 1, strains capable of hydrolysing cefotaxime): P
- results of the test (A. xylosoxidans, VIM-1, isolate number 1, strains capable of hydrolysing cefotaxime): P
- results of the test (E coli, CTX-M-3, isolate number 1, strains capable of hydrolysing cefotaxime): P
- results of the test (E. aerogenes, TEM-24, isolate number 2, strains capable of hydrolysing cefotaxime): P
- results of the test (E. cloacae, CTX-M-15 + Overexpressed AmpC, isolate number 1, strains capable of hydrolysing cefotaxime): P
- results of the test (E. cloacae, NmcA + Overexpressed AmpC, isolate number 1, strains capable of hydrolysing cefotaxime): P
- results of the test (E. cloacae, SHV + GES-5, isolate number 1, strains capable of hydrolysing cefotaxime): P
- results of the test (E. cloacae, SHV + OXA-163, isolate number 1, strains capable of hydrolysing cefotaxime): P
- results of the test (E. cloacae, SHV-5 + OXA-48, isolate number 1, strains capable of hydrolysing cefotaxime): P
- results of the test (E. cloacae, SHV-12 + IMP-8, isolate number 1, strains capable of hydrolysing cefotaxime): P
- results of the test (E. cloacae, SHV-70 + VIM-1, isolate number 1, strains capable of hydrolysing cefotaxime): P
- results of the test (E. cloacae, TEM-1 + KPC-2 + OXA-1, isolate number 1, strains capable of hydrolysing cefotaxime): P
- results of the test (E. cloacae, TEM-1 + KPC-2, isolate number 1, strains capable of hydrolysing cefotaxime): P
- results of the test (E. cloacae, VIM-4 + OXA-48, isolate number 1, strains capable of hydrolysing cefotaxime): P
- results of the test (E. coli, ACC-1, isolate number 1, strains capable of hydrolysing cefotaxime): P
- results of the test (E. coli, CMY + VIM-4, isolate number 1, strains capable of hydrolysing cefotaxime): P
- results of the test (E. coli, CMY-2 + OXA-244, isolate number 1, strains capable of hydrolysing cefotaxime): P
- results of the test (E. coli, CMY-13 + VIM-1, isolate number 1, strains capable of hydrolysing cefotaxime): P
- results of the test (E. coli, CMY-136, isolate number 1, strains capable of hydrolysing cefotaxime): P
- results of the test (E. coli, CTX-M + MCR-3.2, isolate number 1, strains capable of hydrolysing cefotaxime): P
- results of the test (E. coli, CTX-M + NDM-19, isolate number 1, strains capable of hydrolysing cefotaxime): P
- results of the test (E. coli, CTX-M-1, isolate number 3, strains capable of hydrolysing cefotaxime): P
- results of the test (E. coli, CTX-M-2 + MCR-1, isolate number 1, strains capable of hydrolysing cefotaxime): P
- results of the test (E. coli, CTX-M-2, isolate number 3, strains capable of hydrolysing cefotaxime): P
- results of the test (E. coli, CTX-M-8, isolate number 1, strains capable of hydrolysing cefotaxime): P
- results of the test (E. coli, CTX-M-10, isolate number 1, strains capable of hydrolysing cefotaxime): P
- results of the test (E. coli, CTX-M-13 + CMY, isolate number 1, strains capable of hydrolysing cefotaxime): P
- results of the test (E. coli, CTX-M-14, isolate number 2, strains capable of hydrolysing cefotaxime): P
- results of the test (E. coli, CTX-M-15 + OXA-48, isolate number 1, strains capable of hydrolysing cefotaxime): P
- results of the test (E. coli, CTX-M-15, isolate number 5, strains capable of hydrolysing cefotaxime): P
- results of the test (E. coli, CTX-M-17, isolate number 1, strains capable of hydrolysing cefotaxime): P
- results of the test (E. coli, CTX-M-24, isolate number 2, strains capable of hydrolysing cefotaxime): P
- results of the test (E. coli, CTX-M-27, isolate number 2, strains capable of hydrolysing cefotaxime): P
- results of the test (E. coli, CTX-M-32, isolate number 1, strains capable of hydrolysing cefotaxime): P
- results of the test (E. coli, CTX-M-37, isolate number 1, strains capable of hydrolysing cefotaxime): P
- results of the test (E. coli, CTX-M-55, isolate number 2, strains capable of hydrolysing cefotaxime): P
- results of the test (E. coli, CTX-M-57, isolate number 1, strains capable of hydrolysing cefotaxime): P
- results of the test (E. coli, CTX-M-65, isolate number 2, strains capable of hydrolysing cefotaxime): P
- results of the test (E. coli, CTX-M-71, isolate number 1, strains capable of hydrolysing cefotaxime): P
- results of the test (E. coli, CTX-M-82, isolate number 1, strains capable of hydrolysing cefotaxime): P
- results of the test (E. coli, CTX-M-100, isolate number 1, strains capable of hydrolysing cefotaxime): P
- results of the test (E. coli, CTX-M-101, isolate number 1, strains capable of hydrolysing cefotaxime): P
- results of the test (E. coli, CTX-M-182, isolate number 1, strains capable of hydrolysing cefotaxime): P
- results of the test (E. coli, DHA-1, isolate number 1, strains capable of hydrolysing cefotaxime): P
- results of the test (E. coli, ESBL + MCR-1, isolate number 1, strains capable of hydrolysing cefotaxime): P
- results of the test (E. coli, ESBL + Mutation PmrB (G160E), isolate number 1, strains capable of hydrolysing cefotaxime): P
- results of the test (E. coli, IMP-1, isolate number 1, strains capable of hydrolysing cefotaxime): P
- results of the test (E. coli, IMP-14, isolate number 1, strains capable of hydrolysing cefotaxime): P
- results of the test (E. coli, KPC-2, isolate number 1, strains capable of hydrolysing cefotaxime): P
- results of the test (E. coli, KPC-3, isolate number 1, strains capable of hydrolysing cefotaxime): P
- results of the test (E. coli, KPC-5, isolate number 1, strains capable of hydrolysing cefotaxime): P
